Test results published in patent US11207379B2, “Peptides with anti-cancer activity” (IDP DISCOVERY PHARMA, S.L., priority 2016, dated 2021).
For some of these results: At least one peptide structure holds a part that was inferred or is arguable (an end, a ring closure or a residue). For some of these results: At least one structure is not confirmed: it was looked up by name or label, or the drawing left a doubt. Numbered stars: 1 amine (or outer) side, 2 acyl side, 3 side chain; on linkers, the order of the positions; unused ones are H or OH. Bridge positions count the residues as written; N and C are the ends. Square brackets hold non-standard residues; d marks the D form. Ends that are not written are not given here. Peptide text beside a SMILES is read from it. ξ: configuration not given here. ξαMeNle(6-ylidene) = CC(CCCC=[*:3])(N[*:1])C(=O)[*:2]; R8 = C=CCCCCCC[C@@](C)(N)C(=O)O; S5 = C=CCCC[C@](C)(N)C(=O)O

Key:
[1] = tested on: several tumor cell lines; assay: Anticancer activity in viability assay, stated in words; format: cell-based
Experimental: (§1) A549, MCF-7 and JB cells were seeded at a density of 5000 cells/well and HL-60, MM.1S and Ramos at 10000 cells/well in 100 μl of medium in 96 well plates. After 24 h, the compounds to be tested were added to calculate the dose/response curve at the starting concentration of 100 μM with serial dilutions (1:1). Controls are the untreated cells. Each experiment was performed in triplicate.
(§2) Cells were incubated during 72 h in incubator under CO2 atmosphere at 37° C. Cell viability was measured by means of MTT (3-(4,5-dimethylthiazol-2-yl)-2.5-diphenyltetrazolium bromide) assay, Alamar Blue® (Biosource DAL1100) and Hexosaminidase activity test, consecutively, following manufacturer instructions.
(§3) Data analysis was performed calculating the percentage of cell viability normalized vs. the values of negative control, which was considered equal to 100%. The dose/response curve was fitted through the sigmoidal equation dose-response (variable slope) and the EC50 values were calculated as follow: Y=Bottom+(Top−Bottom)/(1+10^{[(Log EC50−X)*HillSlope]},

[2] = target: MM.1S, B Lymphoblast (multiple myeloma); assay: Viability assay (MTT, Alamar Blue, hexosaminidase), 72 h; format: cell-based; details: MM.1S cells
Experimental: MM.1S, B Lymphoblast (multiple myeloma), ATCC: CRL-2974
(§4) Cell lines A549, MCF-7 and RAMOS were cultured in incubator under CO2 (6%) at 37° C. in DMEM high glucose (Dulbecco's Modified Eagle Solution, Gibco-BRL 31966-21) medium with 10% fetal bovine serum inactivated (FBS) (Gibco-BRL 10106-169). Cell lines HL-60 and MM.1S were cultured in incubator at 37° C. in RPMI-1640 (Sigma R8758) medium with 10% of fetal bovine serum inactivated (FBS) and 2 mM glutamine (Sigma G7513). Cell lines BJ were cultured in incubator under CO2 (6%) at 37° C. in Eagle's Minimum Essential Medium (Sigma, M-2279) with 10% fetal bovine serum inactivated (FBS) (Gibco-BRL 10106-169).
(§5) During the amplification step and the assays adherent cells were rinsed with DPBS (Dulbecco's Phosphate Buffered Saline, Sigma D1283) three times and afterward treated for 5 minutes with trypsin ([…]) (Gibco-BRL, 15400054) in solution of DPBS at 37° C., and, once detached, transferred in the culturing medium. No-adherent cells were centrifuged and transferred in the culturing medium. Cells were counted in a Neubauer chamber after labelling with Tripan-Blue.
as §1, §2
(§6) MTT: 1. Stock solution of MTT (475989 Calbiochem) was 5 mg/ml in PBS 1×. As negative control (experiment noise) 3 wells were treated with 20 μl/well of a solution of SDS 10% in H2O. […] Absorbance at 570 nm was finally measured.
(§7) Alamar Blue: 10 μl Alamar Blue solution was added to each well and the plates were incubated for […] in the incubator. Fluorescence ratio at 535/590 (excitation/emission) was measured in Cytofluor (Millipore) fluorimeter. Blank control was determined by lysis of untreated cells with con 2% of Triton X100, right before adding Alamar Blue solution. […]
as §3

[3] = tested on: A549 cells; assay: Annexin V assay by flow cytometry; format: cell-based; details: A549 cells
Experimental: (§8) Miltenyi Biotec Annexin V-FITC Kit was used. To detect apoptosis in early stage Phosphatidylserine in plasmatic membrane localization was measured, though the calcium dependent reaction with Annexine V. Annexin V molecules were labelled with different fluorophores (FITC) and analyzed by FACS. To detect apoptosis in late stage DNA-intercalating agents, such Propidium iodide (PI) were used.
Cells were seeded at a density range of 150000-30000 cells/well in 12 wells plates, and incubated at 37° C. in the incubator under CO2 atmosphere. After 24 h, […] A549, HL-60 and MM.1S, at IC30 and/or IC80, with compounds IDP-S09 and IL-09, in cell lines HL-60 and MM.1S with compound IDP-S04 and in cell line A549 with compounds IDP-S02 and IDP-S03. Staurosporine and compound 100258-F4 (Sigma) were used as positive control and reference compound, respectively.

[4] = target: RAMOS, B lymphocyte (Burkitt's Lymphoma); assay: Viability assay (MTT, Alamar Blue, hexosaminidase), 72 h; format: cell-based; details: Ramos cells
Experimental: RAMOS, B lymphocyte (Burkitt's Lymphoma), ATCC: CRL-1596
as §4
as §5, with “No-adherent cells were centrifuged and transferred in the culturing medium.” left out, “Tripan-Blue. […]” for “Tripan-Blue.”
as §2, with “instructions. […]” for “instructions.”

[5] = target: A549, epithelial (lung cancer); assay: as above; format: cell-based; details: A549 cells
Experimental: A549, epithelial (lung cancer), ATCC:CCL-185
as §4
as §5, with “No-adherent cells were centrifuged and transferred in the culturing medium.” left out, “Tripan-Blue. […]” for “Tripan-Blue.”
as §2, with “instructions. […]” for “instructions.”

[6] = target: MCF-7, epithelial (breast cancer); assay: as above; format: cell-based; details: MCF7 cells
Experimental: MCF-7, epithelial (breast cancer), ECACC: 86012803
as §4
as §5, with “No-adherent cells were centrifuged and transferred in the culturing medium.” left out, “Tripan-Blue. […]” for “Tripan-Blue.”
as §2, with “instructions. […]” for “instructions.”

[7] = tested on: JB healthy cells (BJ, fibroblast, normal skin); assay: as above; format: cell-based
Experimental: BJ, fibroblast (normal skin), ATCC® CRL-2522™
as §4
as §5, with “No-adherent cells were centrifuged and transferred in the culturing medium.” left out, “Tripan-Blue. […]” for “Tripan-Blue.”
as §2, with “instructions. […]” for “instructions.”

[8] = target: HL-60, promyeloblast (acute myelocytic leukemia, AML); assay: as above; format: cell-based; details: HL-60 cells
Experimental: HL-60, promyeloblast (acute myelocytic leukemia, AML), ECACC: 98070106
as §4, §5, §1, §2, §6, §7, §3

[9] = tested on: MM1S cells; assay: Subcutaneous xenograft model, tumor volume and survival; format: in vivo, CB17-SCID immunosuppressed mice; details: 15 mg/kg i.p. each 12 h; for Tumor Volume: in mm³ (unit assumed)
Experimental: CB17-SCID immunosuppressed mice (female) of 6-7 weeks old housed and handled in a pathogen-free zone. They were purchased from Janvier Labs. All experiments were carried out within the facilities of the University of Salamanca.
Groups Studied: • Control: Medium (PBS) i.p. each 12 hours from Monday to Friday. • S03 i.p. each 12 hours from Monday to Friday (in PBS until end point) • S04 15 mg/kg i.p. each 12 hours from Monday to Friday (in PBS until end point) • S09 5 mg/kg i.p. each 12 hours from Monday to Friday (in PBS until end point)
Subcutaneous xenoaraft model: The mice were shaved on the right flank and anesthetized by inhalation to decrease their mobility, were inoculated subcutaneously with 3×10^6 MM1S cells in 50 μl of RPMI-1640 medium and 50 μl of Corning® Matrigel® Basement Membrane Matrix. When the tumors became palpable (at 30 days), the mice were randomized into the different groups (5 mice in the control group and 4 in the remaining groups) according to the tumor volume. This was estimated by measurements with a caliper of the two tumor diameters and using the following formula of a spheroid: V=(a·b^2·π)/6, where a and b correspond to the longest and shortest diameter, respectively. Tumor volume was monitored three times per week.
Survival evaluation: Mice were sacrificed when their tumor diameter reached 2 cm. The time to reach the endpoint criterion was estimated from the day of treatment start. The statistical differences were evaluated using Kaplan-Meier curves with the log rank test. Statistical analyzes were performed using the SPSS-17.0 program.

[10] = tested on: HL-60 cells; assay: Annexin V assay by flow cytometry; format: cell-based; details: for Percentage of HL-60 gated cells (positive to Annexin V): compound at EC30, control = 100%
Experimental: as §8
(§9) Cells were seeded at a density range of 150000-30000 cells/well in 12 wells plates, and incubated at 37° C. in the incubator under CO2 atmosphere. After 24 h, treatments at 4 h, 8 h, 18 h, 48 h and 72 h were performed in cell lines A549, HL-60 and MM.1S, at IC30 and/or IC80, with compounds IDP-S09 and IL-09, in cell lines HL-60 and MM.1S with compound IDP-S04 and in cell line A549 with compounds IDP-S02 and IDP-S03. Staurosporine and compound 100258-F4 (Sigma) were used as positive control and reference compound, respectively.

[11] = tested on: MM.1S cells; assay: Annexin V assay by flow cytometry; format: cell-based
Experimental: as §8, §9

[12] = read-out: Concentration corresponding to the IC80

## RQRRNELKRSFFALRDQ [IDP-L11, RQRRNELKRSFFALRDQ]
[1]
  anticancer activity (active / inactive): inactive

## CC(C)C[C@H](NC(=O)[C@H](C)NC(=O)[C@H](C)NC(=O)[C@H](Cc1ccccc1)NC(=O)C1(C)CCCC=CCCCC(C)(NC(=O)[C@H](CC(N)=O)NC(=O)[C@H](CCCNC(=N)N)NC(=O)[C@H](CCCNC(=N)N)NC(=O)[C@H](CCC(N)=O)NC(=O)[C@@H](N)CCCNC(=N)N)C(=O)N[C@@H](CC(C)C)C(=O)N[C@@H](CCCCN)C(=O)N[C@@H](CCCNC(=N)N)C(=O)N1)C(=O)N[C@@H](CCCNC(=N)N)C(=O)N[C@@H](CC(=O)O)C(=O)N[C@@H](CCC(N)=O)C(N)=O (stereo partly shown) [IDP-S02, RQRRNXLKRXFAALRDQ-NH2] (H-RQRRN[ξαMeNle(6-ylidene)]LKR[ξαMeNle(6-ylidene)]FAALRDQ-NH2; staple 6-10)
[2]; 72 h
  EC50: 17 ± 6 µM
[3]
  apoptosis induction (Annexin V by FACS), in words: apoptosis induction is detected after 4 h at both IC30 and IC80
[4]
  EC50: 14 ± 7 µM
[5]
  EC50: ~43 µM
[6]
  EC50: 24 ± 2 µM
[7]
  EC50: > 100 µM
[8]; 72 h
  EC50: 11 µM

## CC(C)C[C@@H]1NC(=O)[C@H](C)NC(=O)[C@H](C)NC(=O)[C@H](Cc2ccccc2)NC(=O)[C@](C)(NC(=O)[C@H](CCCNC(=N)N)NC(=O)[C@H](CCCCN)NC(=O)[C@H](CC(C)C)NC(=O)[C@H](CCC(=O)O)NC(=O)[C@H](CC(N)=O)NC(=O)[C@H](CCCNC(=N)N)NC(=O)[C@H](CCCNC(=N)N)NC(=O)[C@H](CCC(N)=O)NC(=O)[C@@H](N)CCCNC(=N)N)CCCCCC/C=C\CCC[C@@](C)(C(N)=O)NC(=O)[C@H](CC(=O)O)NC(=O)[C@H](CCCNC(=N)N)NC1=O [IDP-S04, RQRRNELKRXFAALRDX-H2] (H-RQRRNELKR[R8]FAALRD[S5]-NH2; staple (Z) 10-17; N-terminus assumed)
[2]; [12]
  IC80: 18 µM
[9]; at the end-time (when the control is sacrificed)
  tumor reduction with respect to the control: 50%
[9]; day of treatment 1 (= 100)
  % Tumor Volume: 100%
[9]; day of treatment 1
  Tumor Volume: 60.9
[9]; day of treatment 5, relative to day 1
  % Tumor Volume: 154.9%
[9]; day of treatment 5
  Tumor Volume: 94.4
[9]; day of treatment 10, relative to day 1
  % Tumor Volume: 435.4%
[9]; day of treatment 10
  Tumor Volume: 265.3
[9]; day of treatment 15, relative to day 1
  % Tumor Volume: 799.9%
[9]; day of treatment 15
  Tumor Volume: 487.4
[9]; day of treatment 19, relative to day 1
  % Tumor Volume: 1076.2%
[9]; day of treatment 19
  Tumor Volume: 655.8
[9]; day of treatment 26, relative to day 1
  % Tumor Volume: 2538.7%
[9]; day of treatment 26
  Tumor Volume: 1546.9
[10]; 48 h
  Percentage of HL-60 gated cells (positive to Annexin V): 600%
[10]; 72 h
  Percentage of HL-60 gated cells (positive to Annexin V): 430%
[10]; HL-60 cells
  apoptosis induction (Annexin V by FACS), in words: Induction of apoptosis was observed
[11]; 4 h, compound at EC80, control = 100%
  Percentage of MM.1S gated cells (positive to Annexin V): 390%
[11]; 8 h, compound at EC80, control = 100%
  Percentage of MM.1S gated cells (positive to Annexin V): 630%
[11]; 48 h, compound at EC30, control = 100%
  Percentage of MM.1S gated cells (positive to Annexin V): 310%
[11]; 72 h, compound at EC30, control = 100%
  Percentage of MM.1S gated cells (positive to Annexin V): 100%
[11]; MM.1S cells
  apoptosis induction (Annexin V by FACS), in words: Induction of apoptosis was observed
[8]; [12]
  IC80: 26 µM
